Reference: patent EP1655027A1, “9-(N-methyl-piperidyliden-4)-thioxanthene for treatment of pulmonary hypertension and migraine” (Biofrontera Pharmaceuticals GmbH, priority 2004, dated 2006)

Amino acid sequences for entries named in this document (tags omitted).
UniProt P41595, whole entry: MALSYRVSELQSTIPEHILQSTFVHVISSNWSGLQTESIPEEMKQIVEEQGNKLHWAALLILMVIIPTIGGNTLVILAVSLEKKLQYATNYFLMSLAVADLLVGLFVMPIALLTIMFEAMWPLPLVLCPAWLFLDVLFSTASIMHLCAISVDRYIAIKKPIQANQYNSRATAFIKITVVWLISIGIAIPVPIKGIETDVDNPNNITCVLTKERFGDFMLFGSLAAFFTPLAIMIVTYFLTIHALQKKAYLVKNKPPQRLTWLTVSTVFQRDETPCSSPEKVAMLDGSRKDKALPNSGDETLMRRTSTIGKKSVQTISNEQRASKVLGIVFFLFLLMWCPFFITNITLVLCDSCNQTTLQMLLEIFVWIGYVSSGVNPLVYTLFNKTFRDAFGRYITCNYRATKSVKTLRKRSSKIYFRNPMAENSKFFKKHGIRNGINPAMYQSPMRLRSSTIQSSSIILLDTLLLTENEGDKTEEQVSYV

Molecular target: human 5-HT2B receptor (Homo sapiens, UniProt P41595)
Assay: Cloned human 5-HT2B receptor binding assay, [3H]-5HT

CC[C@@H](CO)NC(=O)[C@@H]1C=C2c3cccc4c3c(cn4C)C[C@H]2N(C)C1 [Methysergide]
Ki: 1.41 nM
